Our source for the log2 fold change values is the supplement of paper PMC12819154, “High-throughput peptide-centric local stability assay extends protein–ligand identification to membrane proteins, tissues and bacteria” (Nature Structural & Molecular Biology, 2025).

Protein sequences, listed by entry. Tags and fused reporters are not part of them. Lines headed by an entry give the natural chain unless they say otherwise; changes in a name come on top.
UniProt P51024: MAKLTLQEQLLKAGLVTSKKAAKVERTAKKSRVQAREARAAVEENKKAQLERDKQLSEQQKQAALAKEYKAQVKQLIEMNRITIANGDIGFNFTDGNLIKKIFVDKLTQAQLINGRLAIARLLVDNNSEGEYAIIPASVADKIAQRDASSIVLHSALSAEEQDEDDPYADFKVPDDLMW
UniProt P75728: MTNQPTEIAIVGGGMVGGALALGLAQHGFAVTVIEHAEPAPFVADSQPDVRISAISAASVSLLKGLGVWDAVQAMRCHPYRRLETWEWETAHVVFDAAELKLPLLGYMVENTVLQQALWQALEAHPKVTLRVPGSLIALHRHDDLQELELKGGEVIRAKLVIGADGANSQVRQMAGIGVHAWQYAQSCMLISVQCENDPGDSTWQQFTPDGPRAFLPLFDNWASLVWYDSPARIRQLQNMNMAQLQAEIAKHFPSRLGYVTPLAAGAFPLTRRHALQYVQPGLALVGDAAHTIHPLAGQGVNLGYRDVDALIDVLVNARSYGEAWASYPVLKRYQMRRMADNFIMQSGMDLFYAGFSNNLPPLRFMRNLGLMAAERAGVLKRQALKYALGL
UniProt P46853: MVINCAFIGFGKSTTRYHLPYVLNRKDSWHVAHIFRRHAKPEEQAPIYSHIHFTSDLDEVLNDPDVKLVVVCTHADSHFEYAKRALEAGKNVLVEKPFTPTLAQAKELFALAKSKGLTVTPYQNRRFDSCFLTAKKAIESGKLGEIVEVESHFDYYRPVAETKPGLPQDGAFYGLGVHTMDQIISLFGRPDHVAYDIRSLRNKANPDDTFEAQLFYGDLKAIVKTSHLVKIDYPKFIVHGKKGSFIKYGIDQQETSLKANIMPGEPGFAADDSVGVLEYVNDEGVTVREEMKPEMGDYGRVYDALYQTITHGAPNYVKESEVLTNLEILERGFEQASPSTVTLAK
UniProt P75791: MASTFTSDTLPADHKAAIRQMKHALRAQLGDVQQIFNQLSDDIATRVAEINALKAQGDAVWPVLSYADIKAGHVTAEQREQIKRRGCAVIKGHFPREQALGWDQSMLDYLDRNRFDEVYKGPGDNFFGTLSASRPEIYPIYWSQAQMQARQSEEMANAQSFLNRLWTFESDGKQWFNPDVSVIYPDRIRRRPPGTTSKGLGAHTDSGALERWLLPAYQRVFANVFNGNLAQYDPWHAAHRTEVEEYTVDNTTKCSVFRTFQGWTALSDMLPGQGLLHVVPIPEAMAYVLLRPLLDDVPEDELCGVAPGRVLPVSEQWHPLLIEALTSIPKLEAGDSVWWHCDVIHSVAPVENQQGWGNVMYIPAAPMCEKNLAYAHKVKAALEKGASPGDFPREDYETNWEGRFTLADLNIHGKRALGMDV
UniProt P75691: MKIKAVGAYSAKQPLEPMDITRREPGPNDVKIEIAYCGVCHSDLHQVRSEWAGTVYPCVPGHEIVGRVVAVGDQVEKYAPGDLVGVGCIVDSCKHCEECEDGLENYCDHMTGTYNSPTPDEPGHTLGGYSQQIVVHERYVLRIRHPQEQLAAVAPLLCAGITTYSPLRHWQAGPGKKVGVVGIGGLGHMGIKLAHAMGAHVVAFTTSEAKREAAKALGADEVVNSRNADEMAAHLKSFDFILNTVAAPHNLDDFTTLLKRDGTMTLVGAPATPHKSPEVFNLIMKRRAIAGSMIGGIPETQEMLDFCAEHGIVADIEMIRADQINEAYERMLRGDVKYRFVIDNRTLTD
UniProt P64554: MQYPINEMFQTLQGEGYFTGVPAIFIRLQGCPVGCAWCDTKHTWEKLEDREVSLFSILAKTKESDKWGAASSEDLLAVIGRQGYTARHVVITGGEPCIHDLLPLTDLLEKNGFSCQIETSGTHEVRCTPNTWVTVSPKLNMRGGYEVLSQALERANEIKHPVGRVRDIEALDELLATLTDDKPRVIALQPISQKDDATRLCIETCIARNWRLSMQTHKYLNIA
UniProt P52643: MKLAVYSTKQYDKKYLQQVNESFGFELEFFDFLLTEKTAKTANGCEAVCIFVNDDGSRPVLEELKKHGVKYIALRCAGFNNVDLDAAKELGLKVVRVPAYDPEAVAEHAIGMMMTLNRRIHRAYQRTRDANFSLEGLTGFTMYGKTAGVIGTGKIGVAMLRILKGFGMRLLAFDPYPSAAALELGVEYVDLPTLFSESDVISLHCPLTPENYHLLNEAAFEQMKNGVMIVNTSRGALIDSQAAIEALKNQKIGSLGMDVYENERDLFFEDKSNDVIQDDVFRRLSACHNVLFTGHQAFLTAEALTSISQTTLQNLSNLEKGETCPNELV
UniProt P54901: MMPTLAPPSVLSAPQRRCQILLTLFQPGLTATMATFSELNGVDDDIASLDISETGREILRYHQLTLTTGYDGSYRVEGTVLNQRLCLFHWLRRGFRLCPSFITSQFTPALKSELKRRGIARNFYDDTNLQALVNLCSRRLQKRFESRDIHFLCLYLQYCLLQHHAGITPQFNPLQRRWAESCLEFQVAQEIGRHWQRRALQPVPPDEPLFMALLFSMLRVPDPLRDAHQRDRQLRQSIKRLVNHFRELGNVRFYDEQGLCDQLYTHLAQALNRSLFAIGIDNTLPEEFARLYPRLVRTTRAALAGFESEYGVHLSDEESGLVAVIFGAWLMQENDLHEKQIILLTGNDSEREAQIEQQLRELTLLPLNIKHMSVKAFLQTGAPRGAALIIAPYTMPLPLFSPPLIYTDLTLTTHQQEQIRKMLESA
UniProt P61517: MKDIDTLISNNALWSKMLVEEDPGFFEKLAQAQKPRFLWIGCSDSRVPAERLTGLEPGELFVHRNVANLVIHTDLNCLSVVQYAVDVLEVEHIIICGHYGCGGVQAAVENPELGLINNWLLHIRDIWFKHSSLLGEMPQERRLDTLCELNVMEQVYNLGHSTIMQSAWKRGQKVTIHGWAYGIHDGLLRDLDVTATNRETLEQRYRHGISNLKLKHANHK
UniProt P64636: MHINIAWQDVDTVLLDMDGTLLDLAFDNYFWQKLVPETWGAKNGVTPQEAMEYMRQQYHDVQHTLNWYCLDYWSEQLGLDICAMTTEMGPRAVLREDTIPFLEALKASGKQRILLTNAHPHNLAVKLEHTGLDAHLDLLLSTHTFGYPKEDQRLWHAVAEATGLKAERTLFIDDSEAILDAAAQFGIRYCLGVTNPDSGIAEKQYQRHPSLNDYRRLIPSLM
UniProt P64610: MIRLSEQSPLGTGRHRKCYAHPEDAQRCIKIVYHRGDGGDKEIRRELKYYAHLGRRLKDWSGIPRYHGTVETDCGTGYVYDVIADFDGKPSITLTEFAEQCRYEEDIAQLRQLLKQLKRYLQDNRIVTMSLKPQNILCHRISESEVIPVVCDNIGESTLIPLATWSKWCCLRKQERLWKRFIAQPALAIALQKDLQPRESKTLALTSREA

Some of the results follow. Most values lie at the level of the controls, where differences are scatter.

Compound in this assay: CC1(C)S[C@@H]2[C@H](NC(=O)[C@H](N)c3ccccc3)C(=O)N2[C@H]1C(=O)O [ampicillin]
The assay is described as follows: log2 fold change of tryptic peptide abundance, ligand vs vehicle (limited proteolysis) (log2 ratio); higher = more trypsin-susceptible (destabilized). Particulars: ligand concentration: 10 uM; sample: E. coli crude lysate.
For “UniProt P51024 (peptide sequence: KIFVDKLTQAQLINGR, peptide start residue: 101)”, the log2 fold change is 0.144.

Regarding “UniProt P75728 (peptide sequence: LVIGADGANSQVR, peptide start residue: 160)”, the log2 fold change was found to be 0.224.

Consider “UniProt P46853 (peptide sequence: GLTVTPYQNR, peptide start residue: 116)”, for which the log2 fold change is -0.38.

On to “UniProt P75791 (peptide sequence: FTLADLNIHGKR, peptide start residue: 404)”, for which the log2 fold change was -0.323.

For the target “UniProt P75691 (peptide sequence: VGVVGIGGLGHMGIK, peptide start residue: 178)”, the log2 fold change is -0.32.

With “UniProt P64554 (peptide sequence: LSMQTHK, peptide start residue: 212)”, the log2 fold change was 0.52.

In the case of “UniProt P52643 (peptide sequence: GALIDSQAAIEALKNQK, peptide start residue: 235)”, the log2 fold change was -0.0754.

Turning to “UniProt P54901 (peptide sequence: VPDPLRDAHQR, peptide start residue: 220)”, the log2 fold change was -0.362.

Regarding “UniProt P61517 (peptide sequence: FLWIGCSDSR, peptide start residue: 37)”, the log2 fold change was -0.364.

As for “UniProt P64636 (peptide sequence: AVLREDTIPFLEALKASGK, peptide start residue: 92)”, the log2 fold change worked out at 0.195.

Take “UniProt P64610 (peptide sequence: GDGGDKEIR, peptide start residue: 36)”: the log2 fold change is 0.252.
